From the supplement of paper PMC12595434, “Development of retinoid nuclear receptor pathway antagonists through targeting aldehyde dehydrogenase 1A3” (iScience, 2025)
Some of the results follow. This is a noisy data set.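 Tm was set to 64 °C where no melting was found, and many curves are irregular.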

Amino acid sequences for entries named in this document (tags omitted). A change or cut given only in a name is not applied to a line headed by its entry.
UniProt Q96DH6: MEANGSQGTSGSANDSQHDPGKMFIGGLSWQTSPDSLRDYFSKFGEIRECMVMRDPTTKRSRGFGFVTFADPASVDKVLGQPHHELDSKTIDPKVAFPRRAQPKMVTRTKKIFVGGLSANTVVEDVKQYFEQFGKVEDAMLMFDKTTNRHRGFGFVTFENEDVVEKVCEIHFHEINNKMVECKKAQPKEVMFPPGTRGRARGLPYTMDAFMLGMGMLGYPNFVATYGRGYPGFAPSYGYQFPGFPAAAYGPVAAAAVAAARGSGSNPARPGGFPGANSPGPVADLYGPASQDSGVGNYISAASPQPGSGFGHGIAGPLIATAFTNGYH
UniProt Q96EE3: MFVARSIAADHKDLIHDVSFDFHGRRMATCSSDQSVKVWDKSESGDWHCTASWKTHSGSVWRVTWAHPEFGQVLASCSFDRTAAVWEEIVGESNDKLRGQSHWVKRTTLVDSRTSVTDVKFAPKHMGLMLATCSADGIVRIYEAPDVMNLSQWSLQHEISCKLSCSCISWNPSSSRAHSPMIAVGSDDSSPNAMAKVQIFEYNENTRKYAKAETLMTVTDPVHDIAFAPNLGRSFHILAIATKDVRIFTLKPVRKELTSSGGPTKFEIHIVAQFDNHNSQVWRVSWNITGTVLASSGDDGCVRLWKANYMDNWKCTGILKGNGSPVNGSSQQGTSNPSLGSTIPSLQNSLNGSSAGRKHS
UniProt Q96BQ5: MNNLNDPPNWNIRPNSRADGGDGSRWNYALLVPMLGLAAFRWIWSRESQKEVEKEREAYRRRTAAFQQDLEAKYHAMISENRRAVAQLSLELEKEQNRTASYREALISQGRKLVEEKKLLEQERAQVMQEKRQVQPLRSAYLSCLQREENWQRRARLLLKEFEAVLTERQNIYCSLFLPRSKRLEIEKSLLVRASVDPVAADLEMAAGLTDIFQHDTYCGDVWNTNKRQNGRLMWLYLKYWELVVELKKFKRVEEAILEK
UniProt Q93009, whole entry, looked up: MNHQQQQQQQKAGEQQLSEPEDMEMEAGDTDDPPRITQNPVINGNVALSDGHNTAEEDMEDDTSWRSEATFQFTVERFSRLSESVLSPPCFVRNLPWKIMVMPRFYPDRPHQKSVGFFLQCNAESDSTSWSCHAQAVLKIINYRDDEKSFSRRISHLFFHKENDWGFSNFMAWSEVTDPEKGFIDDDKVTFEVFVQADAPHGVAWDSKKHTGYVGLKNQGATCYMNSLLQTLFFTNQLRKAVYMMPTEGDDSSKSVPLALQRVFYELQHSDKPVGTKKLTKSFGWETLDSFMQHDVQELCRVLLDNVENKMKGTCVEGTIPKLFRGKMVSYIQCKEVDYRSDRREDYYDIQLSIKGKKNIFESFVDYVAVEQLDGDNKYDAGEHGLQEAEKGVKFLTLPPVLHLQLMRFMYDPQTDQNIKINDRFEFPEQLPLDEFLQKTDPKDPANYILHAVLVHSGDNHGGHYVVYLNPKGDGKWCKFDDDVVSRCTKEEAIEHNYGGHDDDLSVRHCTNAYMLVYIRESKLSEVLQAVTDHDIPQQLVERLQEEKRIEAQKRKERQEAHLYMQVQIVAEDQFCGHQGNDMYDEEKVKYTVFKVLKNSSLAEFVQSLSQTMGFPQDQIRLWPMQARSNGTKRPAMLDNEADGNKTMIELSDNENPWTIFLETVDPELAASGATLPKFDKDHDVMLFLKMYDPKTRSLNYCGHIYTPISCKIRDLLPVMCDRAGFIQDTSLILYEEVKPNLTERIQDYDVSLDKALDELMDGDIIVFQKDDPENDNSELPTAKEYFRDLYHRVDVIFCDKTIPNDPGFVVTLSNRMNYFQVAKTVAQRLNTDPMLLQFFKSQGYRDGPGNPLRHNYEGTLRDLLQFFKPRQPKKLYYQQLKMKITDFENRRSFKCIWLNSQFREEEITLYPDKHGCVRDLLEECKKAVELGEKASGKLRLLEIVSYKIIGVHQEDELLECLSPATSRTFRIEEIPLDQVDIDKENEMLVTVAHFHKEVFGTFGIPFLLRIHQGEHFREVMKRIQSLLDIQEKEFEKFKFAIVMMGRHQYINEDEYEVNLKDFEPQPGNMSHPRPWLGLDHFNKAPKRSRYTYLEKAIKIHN
UniProt Q96BN2: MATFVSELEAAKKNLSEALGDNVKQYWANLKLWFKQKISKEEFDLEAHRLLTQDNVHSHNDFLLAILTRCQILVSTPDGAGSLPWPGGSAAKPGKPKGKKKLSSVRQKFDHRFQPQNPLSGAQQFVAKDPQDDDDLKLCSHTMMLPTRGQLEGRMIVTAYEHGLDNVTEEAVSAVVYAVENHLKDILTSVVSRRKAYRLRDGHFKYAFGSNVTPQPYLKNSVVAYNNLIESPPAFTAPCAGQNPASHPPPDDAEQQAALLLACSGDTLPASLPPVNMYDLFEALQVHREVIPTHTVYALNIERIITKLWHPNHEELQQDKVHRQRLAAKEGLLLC
UniProt Q93062, whole entry, looked up: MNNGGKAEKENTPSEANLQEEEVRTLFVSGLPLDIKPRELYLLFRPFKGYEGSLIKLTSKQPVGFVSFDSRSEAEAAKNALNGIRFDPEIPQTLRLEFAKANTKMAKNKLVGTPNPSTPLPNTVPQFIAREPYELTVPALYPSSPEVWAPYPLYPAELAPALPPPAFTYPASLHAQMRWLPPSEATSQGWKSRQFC
UniProt Q96E52: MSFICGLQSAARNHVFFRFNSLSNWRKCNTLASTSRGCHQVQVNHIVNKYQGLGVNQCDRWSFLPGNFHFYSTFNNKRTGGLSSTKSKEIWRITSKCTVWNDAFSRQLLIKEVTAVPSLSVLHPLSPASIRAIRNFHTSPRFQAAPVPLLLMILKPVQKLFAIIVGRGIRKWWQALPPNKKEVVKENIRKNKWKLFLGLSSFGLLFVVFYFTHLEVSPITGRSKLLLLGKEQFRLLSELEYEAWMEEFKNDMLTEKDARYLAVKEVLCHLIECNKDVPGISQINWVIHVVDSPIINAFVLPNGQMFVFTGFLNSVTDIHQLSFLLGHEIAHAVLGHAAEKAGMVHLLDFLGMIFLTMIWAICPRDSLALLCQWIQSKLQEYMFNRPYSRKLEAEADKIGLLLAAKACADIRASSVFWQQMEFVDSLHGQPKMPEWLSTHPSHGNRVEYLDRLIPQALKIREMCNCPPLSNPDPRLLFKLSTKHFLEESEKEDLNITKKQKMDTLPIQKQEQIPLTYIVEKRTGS
UniProt Q92922, whole entry: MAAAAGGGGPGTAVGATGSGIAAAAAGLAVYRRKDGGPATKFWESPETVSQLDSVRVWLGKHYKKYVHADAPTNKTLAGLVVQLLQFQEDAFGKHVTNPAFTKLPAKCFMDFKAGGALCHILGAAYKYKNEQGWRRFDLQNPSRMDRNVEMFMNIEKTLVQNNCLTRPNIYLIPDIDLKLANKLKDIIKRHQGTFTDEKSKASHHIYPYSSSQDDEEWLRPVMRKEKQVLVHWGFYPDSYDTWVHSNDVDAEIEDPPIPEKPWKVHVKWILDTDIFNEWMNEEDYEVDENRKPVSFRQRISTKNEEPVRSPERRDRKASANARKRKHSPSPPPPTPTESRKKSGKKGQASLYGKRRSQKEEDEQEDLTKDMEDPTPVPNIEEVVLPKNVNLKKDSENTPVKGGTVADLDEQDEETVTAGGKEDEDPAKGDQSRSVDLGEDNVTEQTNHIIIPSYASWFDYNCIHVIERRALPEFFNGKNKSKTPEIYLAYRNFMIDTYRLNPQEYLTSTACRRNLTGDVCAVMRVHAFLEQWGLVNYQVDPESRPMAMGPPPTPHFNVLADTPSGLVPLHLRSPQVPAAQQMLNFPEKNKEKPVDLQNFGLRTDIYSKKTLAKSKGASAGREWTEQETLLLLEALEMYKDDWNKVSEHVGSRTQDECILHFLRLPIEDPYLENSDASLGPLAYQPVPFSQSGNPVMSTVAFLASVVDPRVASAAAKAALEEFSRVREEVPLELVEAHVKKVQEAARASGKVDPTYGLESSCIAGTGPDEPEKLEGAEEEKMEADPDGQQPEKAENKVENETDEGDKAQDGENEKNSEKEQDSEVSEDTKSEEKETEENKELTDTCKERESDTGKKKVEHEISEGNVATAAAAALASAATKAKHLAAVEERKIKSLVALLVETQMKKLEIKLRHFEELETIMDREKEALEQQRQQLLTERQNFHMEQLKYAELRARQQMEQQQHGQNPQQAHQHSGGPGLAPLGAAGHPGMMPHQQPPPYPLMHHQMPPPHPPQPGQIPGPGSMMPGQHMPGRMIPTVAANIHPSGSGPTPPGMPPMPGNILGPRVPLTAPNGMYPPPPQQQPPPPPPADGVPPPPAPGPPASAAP
UniProt Q96CS3: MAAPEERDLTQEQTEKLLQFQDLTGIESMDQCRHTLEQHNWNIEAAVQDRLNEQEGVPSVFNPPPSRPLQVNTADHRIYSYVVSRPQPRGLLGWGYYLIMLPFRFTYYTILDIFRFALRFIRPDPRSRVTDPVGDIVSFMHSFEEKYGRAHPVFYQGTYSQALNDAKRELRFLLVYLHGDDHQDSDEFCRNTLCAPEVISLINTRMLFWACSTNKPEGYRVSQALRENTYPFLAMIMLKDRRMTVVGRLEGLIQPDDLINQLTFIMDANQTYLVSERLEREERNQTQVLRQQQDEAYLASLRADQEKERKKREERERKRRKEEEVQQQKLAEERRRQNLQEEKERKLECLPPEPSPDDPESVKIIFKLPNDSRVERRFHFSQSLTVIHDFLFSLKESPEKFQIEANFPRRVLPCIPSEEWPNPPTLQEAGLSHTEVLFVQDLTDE
UniProt Q96DT7: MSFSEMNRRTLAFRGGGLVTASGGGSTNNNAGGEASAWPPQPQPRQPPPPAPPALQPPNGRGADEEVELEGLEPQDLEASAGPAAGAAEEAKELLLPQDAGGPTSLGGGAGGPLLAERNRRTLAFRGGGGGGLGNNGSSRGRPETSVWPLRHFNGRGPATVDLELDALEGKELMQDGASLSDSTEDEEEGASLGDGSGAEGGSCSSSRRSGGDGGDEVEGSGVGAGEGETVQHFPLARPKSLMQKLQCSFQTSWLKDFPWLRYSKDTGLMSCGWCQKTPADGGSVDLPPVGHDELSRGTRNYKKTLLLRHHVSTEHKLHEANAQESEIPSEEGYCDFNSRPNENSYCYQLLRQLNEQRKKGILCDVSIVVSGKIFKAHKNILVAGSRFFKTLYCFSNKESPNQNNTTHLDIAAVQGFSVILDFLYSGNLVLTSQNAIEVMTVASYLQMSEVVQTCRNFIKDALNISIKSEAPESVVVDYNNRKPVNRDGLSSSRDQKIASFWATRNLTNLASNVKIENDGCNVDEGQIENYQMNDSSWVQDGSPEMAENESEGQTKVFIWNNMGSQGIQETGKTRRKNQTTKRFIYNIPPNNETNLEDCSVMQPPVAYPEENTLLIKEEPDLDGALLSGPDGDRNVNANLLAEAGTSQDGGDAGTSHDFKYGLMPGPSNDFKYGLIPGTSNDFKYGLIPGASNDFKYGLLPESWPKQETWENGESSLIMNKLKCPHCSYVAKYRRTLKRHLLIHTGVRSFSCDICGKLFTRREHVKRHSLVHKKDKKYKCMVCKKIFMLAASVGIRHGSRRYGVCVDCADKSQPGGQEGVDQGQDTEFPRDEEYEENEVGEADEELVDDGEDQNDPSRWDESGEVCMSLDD
UniProt Q92530: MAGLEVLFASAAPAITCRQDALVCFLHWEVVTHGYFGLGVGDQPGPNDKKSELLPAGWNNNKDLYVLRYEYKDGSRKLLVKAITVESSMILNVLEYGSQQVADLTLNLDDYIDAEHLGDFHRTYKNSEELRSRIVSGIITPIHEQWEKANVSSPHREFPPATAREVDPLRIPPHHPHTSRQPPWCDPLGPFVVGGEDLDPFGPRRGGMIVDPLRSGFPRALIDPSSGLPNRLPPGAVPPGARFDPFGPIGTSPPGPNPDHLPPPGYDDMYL
UniProt Q92841: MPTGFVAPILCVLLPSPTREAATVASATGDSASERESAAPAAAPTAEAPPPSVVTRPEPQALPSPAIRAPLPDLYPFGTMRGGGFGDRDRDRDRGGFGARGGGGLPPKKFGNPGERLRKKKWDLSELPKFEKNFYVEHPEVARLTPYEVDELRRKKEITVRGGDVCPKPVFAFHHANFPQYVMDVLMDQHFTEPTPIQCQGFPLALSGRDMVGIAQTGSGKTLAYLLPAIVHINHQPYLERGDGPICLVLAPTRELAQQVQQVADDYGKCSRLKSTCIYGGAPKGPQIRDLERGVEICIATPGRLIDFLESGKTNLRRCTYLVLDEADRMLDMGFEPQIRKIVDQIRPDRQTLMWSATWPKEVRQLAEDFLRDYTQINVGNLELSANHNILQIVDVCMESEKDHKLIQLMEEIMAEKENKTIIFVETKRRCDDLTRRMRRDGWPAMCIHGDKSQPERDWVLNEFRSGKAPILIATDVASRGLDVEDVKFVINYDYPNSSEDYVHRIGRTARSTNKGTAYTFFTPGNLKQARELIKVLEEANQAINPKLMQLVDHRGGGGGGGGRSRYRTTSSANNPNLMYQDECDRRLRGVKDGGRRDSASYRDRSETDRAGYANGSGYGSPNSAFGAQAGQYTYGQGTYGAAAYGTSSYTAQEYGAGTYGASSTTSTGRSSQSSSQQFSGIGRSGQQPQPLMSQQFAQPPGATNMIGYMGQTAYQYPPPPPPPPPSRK

These targets were tested with CCc1cnccc1C(=O)Nc1cc2c(cc1F)NC(=O)CC2 (assay: melting temperature shift (DMSO Tm minus MBE1-treated Tm) in cellular thermal proteome profiling; higher = less thermal stabilization by MBE1 (negative = stabilized by MBE1)). Conditions: A375; MBE1 concentration: 100 nM.

Q: With MSI2 (UniProt Q96DH6) as the target, how does the melting temperature shift read?
A: Its melting temperature shift is 1.03 °C.

Q: How did the melting temperature shift turn out when GFM2 (UniProt Q969S9) was run?
A: The melting temperature shift was -0.775 °C.

Q: Which melting temperature shift does the source give for UniProt Q96CG8 here?
A: Its melting temperature shift is -1.39 °C.

Q: How did the melting temperature shift turn out when SEH1L (UniProt Q96EE3) was run?
A: Its melting temperature shift is -0.0201 °C.

Q: USP6NL (UniProt Q92738) was tested. Which melting temperature shift did it give?
A: Its melting temperature shift is -0.427 °C.

Q: For ELP4 (UniProt Q96EB1), which melting temperature shift is on record?
A: Its melting temperature shift is -1.42 °C.

Q: How did the melting temperature shift turn out when CUL5 (UniProt Q93034) was run?
A: Its melting temperature shift is -0.543 °C.

Q: How did the melting temperature shift turn out when UniProt Q8WY21 was run?
A: The melting temperature shift was 0.324 °C.

Q: CCDC127 (UniProt Q96BQ5) was tested. Which melting temperature shift did it give?
A: Its melting temperature shift is 0.201 °C.

Q: How did the melting temperature shift turn out when EXT2 (UniProt Q93063) was run?
A: The melting temperature shift was 0.416 °C.

Q: With USP7 (UniProt Q93009) as the target, how does the melting temperature shift read?
A: Its melting temperature shift is -0.683 °C.

Q: SLC25A46 (UniProt Q96AG3) was tested. Which melting temperature shift did it give?
A: The melting temperature shift was -0.449 °C.

Q: How did the melting temperature shift turn out when PPWD1 (UniProt Q96BP3) was run?
A: The melting temperature shift was 0.189 °C.

Q: Which melting temperature shift does the source give for RAD50 (UniProt Q92878) here?
A: The melting temperature shift was -0.598 °C.

Q: With HAUS1 (UniProt Q96CS2) as the target, how does the melting temperature shift read?
A: The melting temperature shift was -0.692 °C.

Q: With UniProt Q969V6 as the target, how does the melting temperature shift read?
A: The melting temperature shift was -0.973 °C.

Q: How did the melting temperature shift turn out when UniProt Q96BN2 was run?
A: Its melting temperature shift is -0.955 °C.

Q: How did the melting temperature shift turn out when UniProt Q93062 was run?
A: The melting temperature shift was -0.908 °C.

Q: With LPGAT1 (UniProt Q92604) as the target, how does the melting temperature shift read?
A: Its melting temperature shift is 0.824 °C.

Q: Which melting temperature shift does the source give for TM9SF4 (UniProt Q92544) here?
A: The melting temperature shift was 0.409 °C.

Q: With KHSRP (UniProt Q92945) as the target, how does the melting temperature shift read?
A: The melting temperature shift was -3.23 °C.

Q: C18ORF8 (UniProt Q96DM3) was tested. Which melting temperature shift did it give?
A: The melting temperature shift was 0.256 °C.

Q: With OMA1 (UniProt Q96E52) as the target, how does the melting temperature shift read?
A: The melting temperature shift was -2.3 °C.

Q: How did the melting temperature shift turn out when ISOC1 (UniProt Q96CN7) was run?
A: The melting temperature shift was -0.912 °C.

Q: For UniProt Q96AB3, which melting temperature shift is on record?
A: The melting temperature shift was -1.53 °C.

Q: ARHGEF2 (UniProt Q92974) was tested. Which melting temperature shift did it give?
A: Its melting temperature shift is -0.88 °C.

Q: Which melting temperature shift does the source give for UniProt Q92828 here?
A: Its melting temperature shift is 0.824 °C.

Q: Which melting temperature shift does the source give for TMEM131 (UniProt Q92545) here?
A: Its melting temperature shift is -0.562 °C.

Q: For SMARCC1 (UniProt Q92922), which melting temperature shift is on record?
A: The melting temperature shift was -0.416 °C.

Q: With MCUR1 (UniProt Q96AQ8) as the target, how does the melting temperature shift read?
A: The melting temperature shift was -1.5 °C.

Q: For FAF2 (UniProt Q96CS3), which melting temperature shift is on record?
A: Its melting temperature shift is 0.513 °C.

Q: Which melting temperature shift does the source give for ZBTB10 (UniProt Q96DT7) here?
A: Its melting temperature shift is 0.55 °C.

Q: With UniProt Q92556 as the target, how does the melting temperature shift read?
A: Its melting temperature shift is 1.14 °C.

Q: For PSMF1 (UniProt Q92530), which melting temperature shift is on record?
A: Its melting temperature shift is -0.711 °C.

Q: Which melting temperature shift does the source give for KCTD12 (UniProt Q96CX2) here?
A: Its melting temperature shift is -0.427 °C.

Q: With UniProt Q92622 as the target, how does the melting temperature shift read?
A: Its melting temperature shift is 6.28 °C.

Q: How did the melting temperature shift turn out when DDX17 (UniProt Q92841) was run?
A: Its melting temperature shift is 0.0977 °C.

Q: With PYCR2 (UniProt Q96C36) as the target, how does the melting temperature shift read?
A: The melting temperature shift was 0.055 °C.

Same assay, conditions: A375; MBE1 concentration: 1 uM

Q: With MSI2 (UniProt Q96DH6) as the target, how does the melting temperature shift read?
A: The melting temperature shift was 0.0977 °C.

Q: How did the melting temperature shift turn out when GFM2 (UniProt Q969S9) was run?
A: Its melting temperature shift is -0.858 °C.

Q: For UniProt Q96CG8, which melting temperature shift is on record?
A: The melting temperature shift was -1.83 °C.

Q: Which melting temperature shift does the source give for SEH1L (UniProt Q96EE3) here?
A: Its melting temperature shift is 0.619 °C.

Q: How did the melting temperature shift turn out when USP6NL (UniProt Q92738) was run?
A: The melting temperature shift was -0.775 °C.

Q: With ELP4 (UniProt Q96EB1) as the target, how does the melting temperature shift read?
A: The melting temperature shift was 0.0855 °C.

Q: For CUL5 (UniProt Q93034), which melting temperature shift is on record?
A: Its melting temperature shift is 0.287 °C.

Q: UniProt Q8WY21 was tested. Which melting temperature shift did it give?
A: Its melting temperature shift is 1.39 °C.

Q: For CCDC127 (UniProt Q96BQ5), which melting temperature shift is on record?
A: Its melting temperature shift is 0.282 °C.

Q: EXT2 (UniProt Q93063) was tested. Which melting temperature shift did it give?
A: The melting temperature shift was 0.28 °C.

Q: Which melting temperature shift does the source give for USP7 (UniProt Q93009) here?
A: The melting temperature shift was -0.325 °C.

Q: For SLC25A46 (UniProt Q96AG3), which melting temperature shift is on record?
A: Its melting temperature shift is 0.385 °C.

Q: Which melting temperature shift does the source give for PPWD1 (UniProt Q96BP3) here?
A: The melting temperature shift was -0.305 °C.

Q: For RAD50 (UniProt Q92878), which melting temperature shift is on record?
A: The melting temperature shift was -0.32 °C.

Q: Which melting temperature shift does the source give for HAUS1 (UniProt Q96CS2) here?
A: The melting temperature shift was -0.922 °C.

Q: How did the melting temperature shift turn out when UniProt Q969V6 was run?
A: The melting temperature shift was 0.81 °C.

Q: UniProt Q96BN2 was tested. Which melting temperature shift did it give?
A: Its melting temperature shift is -0.416 °C.

Q: Which melting temperature shift does the source give for UniProt Q93062 here?
A: The melting temperature shift was -1.07 °C.

Q: How did the melting temperature shift turn out when LPGAT1 (UniProt Q92604) was run?
A: Its melting temperature shift is 0.635 °C.

Q: Which melting temperature shift does the source give for TM9SF4 (UniProt Q92544) here?
A: Its melting temperature shift is 0.14 °C.

Q: KHSRP (UniProt Q92945) was tested. Which melting temperature shift did it give?
A: The melting temperature shift was -1.06 °C.

Q: How did the melting temperature shift turn out when C18ORF8 (UniProt Q96DM3) was run?
A: The melting temperature shift was 0 °C.

Q: How did the melting temperature shift turn out when OMA1 (UniProt Q96E52) was run?
A: Its melting temperature shift is -0.189 °C.

Q: For ISOC1 (UniProt Q96CN7), which melting temperature shift is on record?
A: The melting temperature shift was 0.311 °C.

Q: How did the melting temperature shift turn out when UniProt Q96AB3 was run?
A: Its melting temperature shift is 0.466 °C.

Q: ARHGEF2 (UniProt Q92974) was tested. Which melting temperature shift did it give?
A: Its melting temperature shift is -0.372 °C.

Q: For UniProt Q92828, which melting temperature shift is on record?
A: Its melting temperature shift is 0.519 °C.

Q: How did the melting temperature shift turn out when TMEM131 (UniProt Q92545) was run?
A: Its melting temperature shift is -0.928 °C.

Q: How did the melting temperature shift turn out when SMARCC1 (UniProt Q92922) was run?
A: Its melting temperature shift is -0.243 °C.

Q: How did the melting temperature shift turn out when MCUR1 (UniProt Q96AQ8) was run?
A: The melting temperature shift was 0.127 °C.

Q: For FAF2 (UniProt Q96CS3), which melting temperature shift is on record?
A: The melting temperature shift was 0.183 °C.

Q: ZBTB10 (UniProt Q96DT7) was tested. Which melting temperature shift did it give?
A: The melting temperature shift was 0.0122 °C.

Q: How did the melting temperature shift turn out when UniProt Q92556 was run?
A: The melting temperature shift was 0.495 °C.

Q: For PSMF1 (UniProt Q92530), which melting temperature shift is on record?
A: Its melting temperature shift is 0.241 °C.

Q: KCTD12 (UniProt Q96CX2) was tested. Which melting temperature shift did it give?
A: Its melting temperature shift is 0.558 °C.

Q: Which melting temperature shift does the source give for UniProt Q92622 here?
A: The melting temperature shift was 1.04 °C.

Q: For DDX17 (UniProt Q92841), which melting temperature shift is on record?
A: Its melting temperature shift is -0.495 °C.

Q: PYCR2 (UniProt Q96C36) was tested. Which melting temperature shift did it give?
A: Its melting temperature shift is 0.0916 °C.
